Experiment: Complexation of antimicrobials by C12LE (NMR extraction)
Type: physicochemical
Details: CHCl3/CDCl3, (drug:C12LE), average of at least three experiments

## O=C(O)c1cn(C2CC2)c2cc(N3CCNCC3)c(F)cc2c1=O [Ciprofloxacin, ciprofloxacin]
  Complexation ratio with C12LE: 2.8

Reference: PMC10603992, “Antimicrobial and Adjuvant Potencies of Di-n-alkyl Substituted Diazalariat Ethers” (Antibiotics, 2023)
